Library screening results

Data taken from ChEMBL document CHEMBL3988442, “University of Dundee, Small-Polar-MMV Screening Library” (2021).

The filed quantity is “Percent Effect” (%).
The record does not define 0% and 100%; most values in the screen are far below 50% and negative numbers occur (in some assays of this library far below -100).
The compounds are a random part of those screened.

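Whole-cell assay for inhibitors of Mycobacterium tuberculosis growth, labelled Cornell in the record; the read-out is not stated. The concentration is filed as 10 mM, unlikely as a test dose, so the dose is not known. Higher means stronger inhibition (inferred from two other growth screens of the library). About 53,000 compounds were tested under these conditions; 1.7% (about 900) showed 50% or more at least once.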

* Cc1ccc(CN2CCOCC3(CCN(Cc4cccs4)C3)C2)o1.O=C(O)C(F)(F)F.O=C(O)C(F)(F)F (centres unmarked) | 16.57%
* Cc1ccccc1C1CCCN1Cc1ccc(S(=O)(=O)N(C)C)o1 (centres unmarked) | 23.54%
* CC(=O)N1CCC2(CC1)CN(C)C(=O)C[C@H]2C(F)(F)F.Cl | 12.95%
* COC(=O)c1cc(C(=O)N2CCc3ccc(F)cc3C2C)ccn1 (centres unmarked) | 5.538%
* CNC(=O)c1cc2c(nc1NCC1CC1)CCN(S(=O)(=O)C1CC1)CC2 | -10.12%
* COCCOC(=O)N1CC2=CC(C)(C)COc3ccc(OC)c(c32)C1 | 26.98%
* CN1CCOC(CNC(=O)Cc2coc(-c3ccccc3)n2)C1 (centres unmarked) | -7.151%
* CN(CC1COc2ccccc2O1)C(=O)c1ccc(-c2cn[nH]c2)nc1 (centres unmarked) | -1.909%
* CCS(=O)(=O)N1CC[C@]2(C[C@@H](OCC3CC3)CO2)C1 | 3.842%
* Cc1nc(C(C)C)sc1C(=O)NCCn1ccnc1 | 14.91%
* CS(=O)(=O)N1CCC(c2nnc3ccc(C(=O)N4CCCC4)cn23)C1 (centres unmarked) | 10%
* Cc1cc(OCCC(=O)NCc2ccc(F)cc2)nnc1C | 4.208%
* COc1ccc(S(=O)(=O)N[C@H]2CN(C(C)=O)C[C@@H]2C2CC2)cc1C | 17.93%
* COc1cccc(OC2CN(C(=O)c3c(C)noc3C)C2)c1 | 10.7%
* c1cc(CNCc2ccnc(N3CCCCC3)c2)c2c(c1)OCCCO2 | 34.96%
* Cn1ncc2c1C(COCC1CC1)CN(C(=O)Cc1ccsc1)C2 (centres unmarked) | 9.074%
* Cc1cc(C)nc(C2CCN(C(=O)CCn3nnc4ccccc43)C2)n1 (centres unmarked) | -1.202%
* O=C(Nc1ccc2c(c1)OCCO2)N1CCCC1c1ccco1 (centres unmarked) | -0.07271%
* O=C(Cn1ccc2c(Cl)cccc21)Nc1nc[nH]n1 | 5.076%
* Cc1c(NC(C)C(C)C)cccc1C(=O)NCc1nnc(C)n1C (centres unmarked) | -26.71%
* Cc1noc(C2CCN(C(=O)CCc3nccs3)CC2)n1 | -23.27%
* Cc1cc(C)cc(OCCC(=O)NC2CC(=O)N(C)C2)c1 (centres unmarked) | -10.76%
* CN(Cc1ccncc1)c1cncc(Br)c1 | -1.215%
* CCCn1cc(S(=O)(=O)N(C)Cc2nonc2C)c(C)n1 | 19.21%
* CC(=O)c1ccc(N2CCN(C(=O)NCc3cc[nH]n3)CC2)cc1 | -20.94%
* COc1ccc(-c2cccc(-c3ccn(CCCN(C)C)n3)c2)nn1 | 11.31%
* CS(=O)(=O)CCOCCNc1ccc(C#N)cc1F | 26.42%
* O=C(O)C(F)(F)F.[H][C@]12CCC[C@@]1(COCc1ccccn1)CN(C(=O)c1ccnnc1)C2 | -3.731%
* CCOCCN1CCN([C@@H]2c3ccccc3C3(CCNCC3)[C@H]2O)CC1 | -24.72%
* Cc1nc(Nc2ccc(Cl)cn2)sc1C(=O)NC(C)C | -2.054%
* Cc1ccc(CN2Cc3c(cnn3C)C(COCC3CC3)C2)s1 (centres unmarked) | -37.53%
* CC(C)c1nnc(C2CCN(CC(=O)Nc3cccnc3)CC2)o1 | -3.117%
* Cc1ccc(C(O)CNC(=O)c2cccnc2O)cc1 (centres unmarked) | 9.316%
* CC(C)c1[nH]c2ncccc2c1CN1CCC(O)CC1 | 14.78%
* [H][C@@]12CN(C(=O)c3cnccn3)C[C@@]1([H])N(CC1CCCC1)C(=O)CO2 | 6.381%
* COCCn1cc(C(=O)N2CCCC2c2cccc(C)c2)ccc1=O (centres unmarked) | 5.7%
* Cc1cc(C)nc(CN(C)c2nc(C3CCCC3)nc3c2cnn3C)c1 | 27.68%
* CNC(=O)c1cccc(CN2CCC(N(C)Cc3ncc(C)o3)C2)c1 (centres unmarked) | -35.08%
* CCC(=O)N1CC[C@H](O)[C@@H]1Cc1ccccc1 | -50.94%
* O=C(C1CCOC1)N1CCc2ncc(CNc3ccccn3)n2CC1 (centres unmarked) | 5.639%
* CCCn1nnnc1CSc1nccn1C | 4.679%
* N[C@@H]1c2ccccc2C2(CCN(c3ncccc3C(F)(F)F)CC2)[C@H]1O | 25.51%
* Cc1noc(CNc2ccc(OC(F)F)cc2OC(F)F)n1 | -12.08%
* [H][C@@]12CCN(C(=O)c3cc(C)on3)C[C@@]1([H])O[C@@H](c1ccncn1)C2 | -44.61%

Some entries from above, unchanged:

compound,Percent Effect
Cc1c(NC(C)C(C)C)cccc1C(=O)NCc1nnc(C)n1C (centres unmarked),-26.71%
CC(=O)c1ccc(N2CCN(C(=O)NCc3cc[nH]n3)CC2)cc1,-20.94%
Cc1cc(C)cc(OCCC(=O)NC2CC(=O)N(C)C2)c1 (centres unmarked),-10.76%
COCCOC(=O)N1CC2=CC(C)(C)COc3ccc(OC)c(c32)C1,26.98%